Experimental data as given in paper PMC3898904.
These are yes or no findings as the source states them, for the method shown. Binding seen in cells or lysates may run through a third protein. These calls come from enrichment with a bait or labelling near it, and not all partners need be listed. Sequences can lack the tags named with a protein.

What was measured:
[1] = biological target: T1, MORC6-3xFlag (Arabidopsis thaliana) (UniProt Q56Y74); assay: affinity purification with mass spectrometry; 3 g flower tissue of transgenic plants; Lysis buffer (50 mM Tris pH 7.6, 150 mM NaCl, 5 mM MgCl2, 10% glycerol, 0.1% NP-40, 0.5 mM DTT); antibody agarose, 4°C, 2.5 h, four washes, elution with 3xFlag peptide; total eluted proteins or silver-stained bands cut from the SDS-PAGE gel; LTQ mass spectrometer, Mascot
T1 sequence: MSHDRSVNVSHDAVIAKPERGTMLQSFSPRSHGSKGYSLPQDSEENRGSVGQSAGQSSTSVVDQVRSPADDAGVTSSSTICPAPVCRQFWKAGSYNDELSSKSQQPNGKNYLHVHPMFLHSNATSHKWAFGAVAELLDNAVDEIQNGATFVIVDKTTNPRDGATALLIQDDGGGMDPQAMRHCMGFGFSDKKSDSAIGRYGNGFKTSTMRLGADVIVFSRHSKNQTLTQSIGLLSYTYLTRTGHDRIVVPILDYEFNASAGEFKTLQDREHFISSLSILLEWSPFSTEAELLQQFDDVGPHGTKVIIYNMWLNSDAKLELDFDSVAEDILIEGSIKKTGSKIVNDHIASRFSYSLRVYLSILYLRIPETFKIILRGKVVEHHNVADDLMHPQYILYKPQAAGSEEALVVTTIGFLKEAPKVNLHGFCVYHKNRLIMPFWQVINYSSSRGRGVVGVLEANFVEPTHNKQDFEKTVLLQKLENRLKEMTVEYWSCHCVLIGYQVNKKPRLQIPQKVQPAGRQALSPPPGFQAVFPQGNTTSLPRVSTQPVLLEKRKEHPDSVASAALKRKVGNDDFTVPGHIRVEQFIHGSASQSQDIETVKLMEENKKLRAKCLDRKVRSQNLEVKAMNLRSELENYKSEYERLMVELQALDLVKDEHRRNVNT

[2] = biological target: T2, SUVH9-3xFlag (Arabidopsis thaliana) (UniProt Q9T0G7); assay: as above
T2 sequence: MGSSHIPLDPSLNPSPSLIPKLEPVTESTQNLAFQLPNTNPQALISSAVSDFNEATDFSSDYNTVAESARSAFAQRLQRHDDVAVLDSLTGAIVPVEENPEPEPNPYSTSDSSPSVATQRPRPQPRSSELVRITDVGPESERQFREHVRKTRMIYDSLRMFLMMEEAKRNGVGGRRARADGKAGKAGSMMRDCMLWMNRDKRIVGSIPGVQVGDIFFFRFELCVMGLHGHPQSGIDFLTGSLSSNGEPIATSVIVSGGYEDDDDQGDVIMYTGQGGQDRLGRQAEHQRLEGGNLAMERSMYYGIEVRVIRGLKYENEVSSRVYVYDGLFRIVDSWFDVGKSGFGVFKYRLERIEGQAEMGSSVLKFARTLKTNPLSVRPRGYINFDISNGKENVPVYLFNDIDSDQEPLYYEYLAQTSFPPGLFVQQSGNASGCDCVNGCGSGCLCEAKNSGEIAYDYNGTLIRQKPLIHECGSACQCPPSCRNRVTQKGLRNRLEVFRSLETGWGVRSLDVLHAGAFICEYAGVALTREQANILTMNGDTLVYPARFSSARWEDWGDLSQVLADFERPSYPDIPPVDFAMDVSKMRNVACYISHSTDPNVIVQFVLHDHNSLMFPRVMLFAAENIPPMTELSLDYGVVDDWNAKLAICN

binding [1]: binds
binding [2]: binds
B1: MORC6/… IN MERISTEM … 11 (DMS11), endogenous (protein, UniProt Q56Y74 1-663)
chain: MSHDRSVNVSHDAVIAKPERGTMLQSFSPRSHGSKGYSLPQDSEENRGSVGQSAGQSSTSVVDQVRSPADDAGVTSSSTICPAPVCRQFWKAGSYNDELSSKSQQPNGKNYLHVHPMFLHSNATSHKWAFGAVAELLDNAVDEIQNGATFVIVDKTTNPRDGATALLIQDDGGGMDPQAMRHCMGFGFSDKKSDSAIGRYGNGFKTSTMRLGADVIVFSRHSKNQTLTQSIGLLSYTYLTRTGHDRIVVPILDYEFNASAGEFKTLQDREHFISSLSILLEWSPFSTEAELLQQFDDVGPHGTKVIIYNMWLNSDAKLELDFDSVAEDILIEGSIKKTGSKIVNDHIASRFSYSLRVYLSILYLRIPETFKIILRGKVVEHHNVADDLMHPQYILYKPQAAGSEEALVVTTIGFLKEAPKVNLHGFCVYHKNRLIMPFWQVINYSSSRGRGVVGVLEANFVEPTHNKQDFEKTVLLQKLENRLKEMTVEYWSCHCVLIGYQVNKKPRLQIPQKVQPAGRQALSPPPGFQAVFPQGNTTSLPRVSTQPVLLEKRKEHPDSVASAALKRKVGNDDFTVPGHIRVEQFIHGSASQSQDIETVKLMEENKKLRAKCLDRKVRSQNLEVKAMNLRSELENYKSEYERLMVELQALDLVKDEHRRNVNT
